Measured values from article PMC6771824.
Results are given in words; binding and its absence hold for the method and conditions named. For some assays here: In cells and extracts the contact can be indirect. Some results given as binding are weak or reduced against the parent protein; the word gives no strength. One block for each binder: values may come before it.

Tests used:
RING1B (human) [1] = molecular target: RING1B (human) (UniProt Q99496); experiment: pull-down; PRC1.2 and PRC1.4 subunits co-expressed in Sf21 cells (MultiBac); strep-tagged RING1B as bait on strep-tactin resin; HEPES 50 mM pH 8, NaCl 150 mM, 1 mM DTT; SDS/PAGE
RING1B (human) [2] = molecular target: RING1B (human) (UniProt Q99496); experiment: cross-linking; about 50 ug of purified ΔPRC1.2 (four subunits) cross-linked with H12/D12 DSS, 37 °C, 30 min; lysine-lysine links, Cα-Cα maximum distance 27 Å; LC-MS/MS, xQuest/xProphet, FDR 0.05; both purified
RING1B (human) [3] = molecular target: RING1B (human) (UniProt Q99496); experiment: SEC; subunits co-expressed in Sf21 cells; strep-tactin affinity by strep-tagged RING1B, then S200 16/600 and S200 10/300 in HEPES 50 mM pH 8, NaCl 150 mM, 1 mM DTT; subunits identified by SDS/PAGE and peptide mass fingerprinting mass spectrometry
RING1B (human) [4] = molecular target: RING1B (human) (UniProt Q99496); experiment: cross-linking; about 50 ug of purified isolated heterodimers (RING1B-PCGF2; RING1B-ΔPHC2), each cross-linked with H12/D12 DSS, 37 °C, 30 min; LC-MS/MS, xQuest/xProphet, FDR 0.05; both purified
RING1B (human), Q99496 = molecular target: T1, RING1B (human), Q99496; experiment: SEC; Superdex 200 10/300; RING1B-PCGF2 sample with an extra peak at Ve ~ 14.1 mL beside the main peak at Ve ~ 12.2 mL; both purified; conditions: remark: other sources report otherwise
T1 chain: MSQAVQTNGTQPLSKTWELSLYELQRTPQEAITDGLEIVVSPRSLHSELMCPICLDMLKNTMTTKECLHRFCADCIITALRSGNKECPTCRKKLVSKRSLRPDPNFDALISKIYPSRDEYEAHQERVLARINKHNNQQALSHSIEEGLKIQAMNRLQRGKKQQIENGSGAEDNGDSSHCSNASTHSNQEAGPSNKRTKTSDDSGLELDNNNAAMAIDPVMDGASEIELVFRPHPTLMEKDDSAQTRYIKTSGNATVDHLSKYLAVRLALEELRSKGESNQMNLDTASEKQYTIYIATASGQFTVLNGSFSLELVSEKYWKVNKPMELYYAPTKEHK

binding (RING1B (human) [1]): binds | binding (RING1B (human) [2]): binds | binding (RING1B (human) [3]): binds | binding (RING1B (human) [4]): binds
B1: PCGF2 (protein, UniProt P35227 1-344)
chain: MHRTTRIKITELNPHLMCALCGGYFIDATTIVECLHSFCKTCIVRYLETNKYCPMCDVQVHKTRPLLSIRSDKTLQDIVYKLVPGLFKDEMKRRRDFYAAYPLTEVPNGSNEDRGEVLEQEKGALSDDEIVSLSIEFYEGARDRDEKKGPLENGDGDKEKTGVRFLRCPAAMTVMHLAKFLRNKMDVPSKYKVEVLYEDEPLKEYYTLMDIAYIYPWRRNGPLPLKYRVQPACKRLTLATVPTPSEGTNTSGASECESVSDKAPSPATLPATSSSLPSPATPSHGSPSSHGPPATHPTSPTPPSTASGATTAANGGSLNCLQTPSSTSRGRKMTVNGAPVPPLT

binding (RING1B (human), Q99496): no binding
B2: RING1B, Q99496 1-336 (enzyme)
chain: T1 chain
